The values below come from the supplement of paper PMC6411743.

Sequences of proteins named here, by UniProt entry; tags and fusion partners are left off. A change or cut given only in a name is not applied to a line headed by its entry.
UniProt Q9H0S4: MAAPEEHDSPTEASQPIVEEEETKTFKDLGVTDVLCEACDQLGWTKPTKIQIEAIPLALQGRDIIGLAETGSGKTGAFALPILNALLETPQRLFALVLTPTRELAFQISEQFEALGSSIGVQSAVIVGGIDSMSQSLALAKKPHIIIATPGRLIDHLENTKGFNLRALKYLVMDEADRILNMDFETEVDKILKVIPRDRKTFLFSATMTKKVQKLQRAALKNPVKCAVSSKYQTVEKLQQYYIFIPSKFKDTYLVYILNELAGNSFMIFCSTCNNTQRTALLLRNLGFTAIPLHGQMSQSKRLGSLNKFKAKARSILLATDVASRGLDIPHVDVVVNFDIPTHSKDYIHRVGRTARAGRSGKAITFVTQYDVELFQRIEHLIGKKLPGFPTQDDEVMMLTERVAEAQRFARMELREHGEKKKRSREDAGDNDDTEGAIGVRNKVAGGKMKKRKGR
UniProt Q9H1P3, whole entry: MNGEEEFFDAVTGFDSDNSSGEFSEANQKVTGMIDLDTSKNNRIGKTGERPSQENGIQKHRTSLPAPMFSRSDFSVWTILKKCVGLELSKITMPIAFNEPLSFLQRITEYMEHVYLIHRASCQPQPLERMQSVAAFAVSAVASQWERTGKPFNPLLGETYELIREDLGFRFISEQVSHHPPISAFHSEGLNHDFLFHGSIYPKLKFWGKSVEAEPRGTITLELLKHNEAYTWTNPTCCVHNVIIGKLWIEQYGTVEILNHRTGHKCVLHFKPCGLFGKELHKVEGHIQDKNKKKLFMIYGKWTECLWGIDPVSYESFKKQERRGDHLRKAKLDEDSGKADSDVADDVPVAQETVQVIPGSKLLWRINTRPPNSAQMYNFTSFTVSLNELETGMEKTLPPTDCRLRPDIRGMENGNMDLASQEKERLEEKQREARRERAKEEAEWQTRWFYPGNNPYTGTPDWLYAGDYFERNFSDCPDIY
UniProt Q9HAJ7: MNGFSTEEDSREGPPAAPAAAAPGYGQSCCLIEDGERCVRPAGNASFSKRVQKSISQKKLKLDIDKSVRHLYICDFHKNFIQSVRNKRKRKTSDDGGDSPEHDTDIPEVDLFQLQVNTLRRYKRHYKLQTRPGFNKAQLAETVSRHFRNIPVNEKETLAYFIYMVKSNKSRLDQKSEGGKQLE
UniProt Q9HCE5: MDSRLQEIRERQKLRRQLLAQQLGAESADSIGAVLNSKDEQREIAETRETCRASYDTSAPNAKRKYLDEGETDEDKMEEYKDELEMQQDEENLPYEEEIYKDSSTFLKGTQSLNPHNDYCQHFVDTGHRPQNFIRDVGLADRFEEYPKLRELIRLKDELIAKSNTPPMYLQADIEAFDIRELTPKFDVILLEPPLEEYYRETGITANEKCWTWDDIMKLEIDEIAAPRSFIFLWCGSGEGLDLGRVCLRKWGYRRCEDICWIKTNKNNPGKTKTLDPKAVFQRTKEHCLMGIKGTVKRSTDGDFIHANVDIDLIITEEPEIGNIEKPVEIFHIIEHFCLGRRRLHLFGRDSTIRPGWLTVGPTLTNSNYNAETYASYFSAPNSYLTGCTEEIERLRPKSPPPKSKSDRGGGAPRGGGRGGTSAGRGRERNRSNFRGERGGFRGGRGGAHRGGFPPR
UniProt Q9H6W3: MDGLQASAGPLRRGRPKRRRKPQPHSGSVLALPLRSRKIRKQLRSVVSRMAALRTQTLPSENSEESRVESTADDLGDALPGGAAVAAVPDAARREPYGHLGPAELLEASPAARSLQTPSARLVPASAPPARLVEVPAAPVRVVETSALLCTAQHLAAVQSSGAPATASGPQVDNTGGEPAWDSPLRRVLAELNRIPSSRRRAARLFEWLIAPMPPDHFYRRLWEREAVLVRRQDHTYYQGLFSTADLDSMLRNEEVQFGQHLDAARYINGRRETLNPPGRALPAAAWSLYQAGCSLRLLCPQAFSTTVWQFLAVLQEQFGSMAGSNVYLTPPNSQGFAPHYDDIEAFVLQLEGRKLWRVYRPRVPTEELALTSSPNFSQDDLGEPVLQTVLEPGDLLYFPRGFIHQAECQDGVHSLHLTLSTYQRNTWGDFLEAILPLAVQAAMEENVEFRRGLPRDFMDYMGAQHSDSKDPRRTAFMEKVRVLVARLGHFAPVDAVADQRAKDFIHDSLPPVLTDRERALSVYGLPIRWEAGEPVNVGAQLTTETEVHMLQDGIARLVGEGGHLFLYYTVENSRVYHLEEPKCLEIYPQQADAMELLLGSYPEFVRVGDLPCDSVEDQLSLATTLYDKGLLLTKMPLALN
UniProt Q9C0D2: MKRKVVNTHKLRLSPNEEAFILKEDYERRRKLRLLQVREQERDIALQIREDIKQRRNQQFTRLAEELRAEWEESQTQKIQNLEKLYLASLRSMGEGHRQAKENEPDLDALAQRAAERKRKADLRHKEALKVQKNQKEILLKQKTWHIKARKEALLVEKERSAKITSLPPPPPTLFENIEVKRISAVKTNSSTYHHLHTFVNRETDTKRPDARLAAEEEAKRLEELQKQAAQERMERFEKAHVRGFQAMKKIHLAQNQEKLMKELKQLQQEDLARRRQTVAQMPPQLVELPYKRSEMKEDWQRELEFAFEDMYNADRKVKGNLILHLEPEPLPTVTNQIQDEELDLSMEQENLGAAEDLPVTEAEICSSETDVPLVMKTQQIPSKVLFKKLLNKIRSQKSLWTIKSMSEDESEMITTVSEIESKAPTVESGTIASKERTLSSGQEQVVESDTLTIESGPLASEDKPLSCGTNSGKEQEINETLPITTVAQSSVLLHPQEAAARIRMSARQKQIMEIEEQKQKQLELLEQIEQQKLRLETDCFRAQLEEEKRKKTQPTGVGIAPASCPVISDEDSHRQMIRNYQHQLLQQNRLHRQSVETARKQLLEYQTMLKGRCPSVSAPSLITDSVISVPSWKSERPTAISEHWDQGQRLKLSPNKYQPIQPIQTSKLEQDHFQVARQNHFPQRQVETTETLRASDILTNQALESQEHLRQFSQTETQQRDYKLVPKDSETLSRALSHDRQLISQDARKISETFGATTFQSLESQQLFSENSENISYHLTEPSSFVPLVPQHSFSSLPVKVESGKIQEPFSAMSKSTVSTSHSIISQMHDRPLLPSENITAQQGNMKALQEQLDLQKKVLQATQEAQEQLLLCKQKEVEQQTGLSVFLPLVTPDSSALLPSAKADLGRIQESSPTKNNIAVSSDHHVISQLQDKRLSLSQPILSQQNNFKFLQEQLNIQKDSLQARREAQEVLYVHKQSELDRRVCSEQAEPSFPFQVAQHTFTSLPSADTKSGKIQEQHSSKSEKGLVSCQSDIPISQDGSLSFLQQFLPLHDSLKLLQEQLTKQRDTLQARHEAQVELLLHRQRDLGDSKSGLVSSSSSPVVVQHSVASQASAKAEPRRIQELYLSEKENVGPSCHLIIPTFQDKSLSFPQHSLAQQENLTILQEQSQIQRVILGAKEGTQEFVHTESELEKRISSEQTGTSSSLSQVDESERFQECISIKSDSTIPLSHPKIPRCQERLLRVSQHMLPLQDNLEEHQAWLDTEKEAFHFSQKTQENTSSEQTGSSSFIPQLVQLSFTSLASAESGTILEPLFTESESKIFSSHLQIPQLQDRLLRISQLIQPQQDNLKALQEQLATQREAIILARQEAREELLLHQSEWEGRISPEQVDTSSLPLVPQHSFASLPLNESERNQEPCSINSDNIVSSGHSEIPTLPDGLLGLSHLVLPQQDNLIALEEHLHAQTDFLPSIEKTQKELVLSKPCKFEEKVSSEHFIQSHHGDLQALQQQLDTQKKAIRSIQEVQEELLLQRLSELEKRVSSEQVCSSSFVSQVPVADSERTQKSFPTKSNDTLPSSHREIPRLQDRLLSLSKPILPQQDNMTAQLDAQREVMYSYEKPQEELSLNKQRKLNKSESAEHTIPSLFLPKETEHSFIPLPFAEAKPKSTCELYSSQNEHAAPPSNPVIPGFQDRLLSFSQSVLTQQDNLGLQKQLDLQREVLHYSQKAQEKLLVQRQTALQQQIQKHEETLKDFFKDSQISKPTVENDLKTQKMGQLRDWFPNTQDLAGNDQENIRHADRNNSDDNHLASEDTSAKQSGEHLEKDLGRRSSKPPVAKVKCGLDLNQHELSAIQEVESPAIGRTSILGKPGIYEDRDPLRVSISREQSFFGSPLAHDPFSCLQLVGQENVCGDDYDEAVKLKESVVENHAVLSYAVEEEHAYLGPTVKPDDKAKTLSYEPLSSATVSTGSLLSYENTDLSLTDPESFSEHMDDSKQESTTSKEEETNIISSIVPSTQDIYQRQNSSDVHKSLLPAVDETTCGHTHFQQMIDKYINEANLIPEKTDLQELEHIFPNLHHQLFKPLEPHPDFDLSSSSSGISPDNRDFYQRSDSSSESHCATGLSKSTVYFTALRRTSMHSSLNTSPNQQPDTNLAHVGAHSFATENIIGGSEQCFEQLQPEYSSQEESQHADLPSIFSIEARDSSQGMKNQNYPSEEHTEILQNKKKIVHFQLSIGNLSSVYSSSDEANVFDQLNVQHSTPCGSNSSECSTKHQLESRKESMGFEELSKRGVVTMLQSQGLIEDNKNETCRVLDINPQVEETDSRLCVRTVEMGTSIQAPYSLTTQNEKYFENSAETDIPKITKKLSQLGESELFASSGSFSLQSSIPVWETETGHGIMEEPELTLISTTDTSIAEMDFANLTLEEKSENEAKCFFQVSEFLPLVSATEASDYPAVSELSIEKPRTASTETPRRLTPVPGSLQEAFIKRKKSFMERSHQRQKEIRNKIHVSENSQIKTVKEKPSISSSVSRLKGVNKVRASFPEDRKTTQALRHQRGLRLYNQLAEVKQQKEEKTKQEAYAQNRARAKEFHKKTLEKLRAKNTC
UniProt Q9GZP9: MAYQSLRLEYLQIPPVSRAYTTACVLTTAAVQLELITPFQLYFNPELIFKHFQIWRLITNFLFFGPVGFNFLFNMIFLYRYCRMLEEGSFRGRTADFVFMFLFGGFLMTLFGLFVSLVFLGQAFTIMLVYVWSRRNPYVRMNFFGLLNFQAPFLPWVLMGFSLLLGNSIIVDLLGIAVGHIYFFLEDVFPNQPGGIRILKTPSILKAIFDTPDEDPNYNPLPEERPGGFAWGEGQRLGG
UniProt Q9GZS1, whole entry: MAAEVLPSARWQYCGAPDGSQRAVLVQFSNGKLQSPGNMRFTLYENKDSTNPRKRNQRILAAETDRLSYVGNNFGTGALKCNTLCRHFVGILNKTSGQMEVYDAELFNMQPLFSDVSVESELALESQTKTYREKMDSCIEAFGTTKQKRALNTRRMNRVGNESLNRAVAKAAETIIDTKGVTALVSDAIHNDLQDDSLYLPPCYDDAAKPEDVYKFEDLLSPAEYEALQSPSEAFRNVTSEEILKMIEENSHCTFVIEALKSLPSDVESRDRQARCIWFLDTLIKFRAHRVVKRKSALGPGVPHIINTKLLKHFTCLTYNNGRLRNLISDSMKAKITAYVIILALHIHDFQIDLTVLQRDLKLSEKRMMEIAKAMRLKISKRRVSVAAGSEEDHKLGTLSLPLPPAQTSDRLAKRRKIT
UniProt Q9H5X1: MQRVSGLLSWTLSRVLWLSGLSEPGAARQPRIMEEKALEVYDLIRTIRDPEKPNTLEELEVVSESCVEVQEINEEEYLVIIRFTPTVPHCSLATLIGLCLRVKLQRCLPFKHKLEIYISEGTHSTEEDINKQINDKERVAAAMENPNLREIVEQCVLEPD
UniProt Q9HDC9: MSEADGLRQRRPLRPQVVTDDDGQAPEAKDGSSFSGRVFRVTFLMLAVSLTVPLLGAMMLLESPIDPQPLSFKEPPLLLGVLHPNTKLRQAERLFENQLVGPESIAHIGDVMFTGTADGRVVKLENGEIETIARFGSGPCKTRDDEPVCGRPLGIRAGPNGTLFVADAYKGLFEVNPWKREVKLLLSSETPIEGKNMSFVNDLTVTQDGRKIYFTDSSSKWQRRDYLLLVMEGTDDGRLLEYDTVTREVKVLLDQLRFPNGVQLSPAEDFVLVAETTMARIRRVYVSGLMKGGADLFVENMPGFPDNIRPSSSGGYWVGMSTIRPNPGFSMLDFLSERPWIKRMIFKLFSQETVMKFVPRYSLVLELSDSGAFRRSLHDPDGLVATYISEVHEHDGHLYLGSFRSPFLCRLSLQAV
UniProt Q9H974: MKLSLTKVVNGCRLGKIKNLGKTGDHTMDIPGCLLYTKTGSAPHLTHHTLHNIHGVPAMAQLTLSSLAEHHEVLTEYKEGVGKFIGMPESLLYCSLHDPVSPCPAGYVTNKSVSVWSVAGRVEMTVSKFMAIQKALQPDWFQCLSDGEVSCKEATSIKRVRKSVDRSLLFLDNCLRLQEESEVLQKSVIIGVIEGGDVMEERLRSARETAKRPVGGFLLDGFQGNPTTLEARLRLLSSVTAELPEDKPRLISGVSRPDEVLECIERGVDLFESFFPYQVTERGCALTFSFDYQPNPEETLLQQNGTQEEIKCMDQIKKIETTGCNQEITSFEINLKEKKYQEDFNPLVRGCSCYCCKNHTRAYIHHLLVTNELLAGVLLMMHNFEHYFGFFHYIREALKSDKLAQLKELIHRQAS

± gives the standard deviation of the averaged measurements. This is a selection; strong and weak results do not stand in their true shares. Most entries show no effect beyond the scatter of the controls.

Compound in the assay: Nc1ncnc2c1ncn2[C@@H]1O[C@H](COP(=O)(O)OP(=O)(O)OP(=O)(O)O)[C@@H](O)[C@H]1O [adenosine triphosphate]
Description: NP40-soluble protein abundance relative to vehicle (solubility fold change) (ratio); higher = more soluble protein in presence of ATP. The following applies: concentration: 0.1mM. In outline: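 In three independent experiments, Jurkat crude lysate made by Dounce homogenisation was treated for 10 min at room temperature and then 3 min at 37 °C with eight concentrations ranging from 0.1 to 10 mM. It was then solubilised with 0.8% NP40 plus benzonase for 60 min at 4 °C and ultracentrifuged. The supernatant was TMT-labelled for LC-MS/MS, and each value is the fold change against the detergent-processed vehicle for the same replicate, using vsn-normalised intensities.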
As to UniProt Q9H0S4 and related entries, the NP40-soluble protein abundance was found to be 1.09 ± 0.013.
The figure for UniProt Q9C037 and related entries is 1.05 ± 0.043; for XAB2 (UniProt Q9HCS7) it is 1.11 ± 0.089; for UniProt Q9H1P3 and related entries it is 1.01 ± 0.067.
Consider RABEP2 (UniProt Q9H5N1), for which the NP40-soluble protein abundance turned out to be 0.982 ± 0.04.
The figure for SAP30L (UniProt Q9HAJ7) is 1.01 ± 0.045; for UniProt Q9HCE5 it is 1.03 ± 0.068.
For UniProt Q9H6W3, the NP40-soluble protein abundance turned out to be 1.07 ± 0.069.
As for UniProt Q9GZN8 and related entries, the figure is 1.12 ± 0.11; as for UniProt Q9H813 and related entries, 1.03 ± 0.091; as for PTGES2 (UniProt Q9H7Z7), 0.965 ± 0.031.
The figure for UniProt Q9C0D2 and related entries is 0.969 ± 0.044; for UniProt Q9GZP9 and related entries it is 0.982 ± 0.071.
The figure for UniProt Q9H867 and related entries is 1.02 ± 0.11.
UniProt Q9H6R4 and related entries: the NP40-soluble protein abundance came to 0.982 ± 0.022.
As for UniProt Q9C0H2 and related entries, the figure is 0.931 ± 0.077.
As for CHD8 (UniProt Q9HCK8), the figure is 1 ± 0.011; as for UniProt Q9GZS1-2, 1 ± 0.051; as for UniProt Q9H993, 1.08 ± 0.085.
Regarding UniProt Q9H5X1, the NP40-soluble protein abundance is 0.991 ± 0.023.
As for UniProt Q9HDC9, the figure is 1.02 ± 0.073.
The figure for UniProt Q9H974 and related entries is 1.06 ± 0.071; for GRPEL1 (UniProt Q9HAV7) it is 0.924 ± 0.087.
For UniProt Q9GZR5, the NP40-soluble protein abundance stood at 0.977 ± 0.092.
As for UniProt Q9NNW7 and related entries, the figure is 1.01 ± 0.043; as for ISCU (UniProt Q9H1K1), 0.959 ± 0.0098; as for UniProt Q9HCM7, 1.1317 ± 0.0011.
As for UniProt Q9HC36, the figure is 0.995 ± 0.04.
